The list shows a part of the results.
How the values were obtained:
Assay in all cases: log2 fold change, soluble protein after heating vs DMSO (PISA); higher = thermal stabilisation; K562 cells, 10 uM, 30 min; active = over 0.2 and 3.5 SD of the protein, either way, in both replicates (recomputed)
[1] = compound: CS(=O)(=O)c1ccc(-c2cnc(N)c(C(=O)Nc3ccccc3)n2)cc1
Summary of the method: (§1)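 K562 cells at 2×10^6 cells/mL were treated with 10 μM compound for 30 min. Aliquots were heated for 3 min across 48°C-58°C, pooled, and extracted in PBS with 0.5% NP-40 at 4°C; soluble protein was the supernatant after 21,000xg for 90 min. Soluble protein was quantified by TMTpro 16plex LC-MS/MS with channel sums equalised, and reported as log2 fold change in thermal stability against DMSO controls, with values from duplicates.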

Protein sequences, listed by entry. Tags and fused reporters are not part of them. Lines headed by an entry give the natural chain unless they say otherwise; changes in a name come on top.
UniProt Q9GZP9: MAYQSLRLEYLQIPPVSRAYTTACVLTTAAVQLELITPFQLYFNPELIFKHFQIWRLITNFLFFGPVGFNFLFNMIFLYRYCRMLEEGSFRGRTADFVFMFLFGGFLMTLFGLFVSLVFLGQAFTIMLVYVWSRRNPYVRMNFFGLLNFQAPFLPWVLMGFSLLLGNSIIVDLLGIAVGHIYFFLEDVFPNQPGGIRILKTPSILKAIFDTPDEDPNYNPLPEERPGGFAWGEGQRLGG
UniProt Q9NR30: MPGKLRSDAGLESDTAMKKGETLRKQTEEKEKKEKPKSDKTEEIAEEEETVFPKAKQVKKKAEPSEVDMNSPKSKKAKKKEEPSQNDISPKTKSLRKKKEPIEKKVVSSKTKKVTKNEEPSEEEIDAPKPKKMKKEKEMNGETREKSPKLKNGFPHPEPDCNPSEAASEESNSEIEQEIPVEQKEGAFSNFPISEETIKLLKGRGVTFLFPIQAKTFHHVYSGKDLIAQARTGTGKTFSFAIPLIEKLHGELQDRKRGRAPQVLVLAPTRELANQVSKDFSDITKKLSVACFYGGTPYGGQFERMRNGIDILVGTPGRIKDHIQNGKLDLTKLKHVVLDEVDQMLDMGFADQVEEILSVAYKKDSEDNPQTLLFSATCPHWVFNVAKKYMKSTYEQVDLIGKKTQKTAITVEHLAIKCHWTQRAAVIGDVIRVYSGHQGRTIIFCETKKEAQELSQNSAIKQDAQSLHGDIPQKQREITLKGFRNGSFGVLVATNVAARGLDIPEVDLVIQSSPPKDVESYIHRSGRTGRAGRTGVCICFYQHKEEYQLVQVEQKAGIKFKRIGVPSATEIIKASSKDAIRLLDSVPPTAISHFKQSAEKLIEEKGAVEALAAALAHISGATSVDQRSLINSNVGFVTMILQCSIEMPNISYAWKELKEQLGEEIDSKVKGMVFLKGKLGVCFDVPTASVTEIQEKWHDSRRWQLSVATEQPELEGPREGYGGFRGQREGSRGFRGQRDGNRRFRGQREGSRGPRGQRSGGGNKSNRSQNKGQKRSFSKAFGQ
UniProt Q9NW81: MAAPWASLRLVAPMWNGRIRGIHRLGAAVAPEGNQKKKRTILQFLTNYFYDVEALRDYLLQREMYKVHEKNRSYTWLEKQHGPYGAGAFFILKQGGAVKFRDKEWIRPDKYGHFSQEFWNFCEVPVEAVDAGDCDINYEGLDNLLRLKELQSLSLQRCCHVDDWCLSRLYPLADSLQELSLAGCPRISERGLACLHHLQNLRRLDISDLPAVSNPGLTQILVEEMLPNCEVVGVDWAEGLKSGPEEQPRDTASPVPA
UniProt Q7Z4W1: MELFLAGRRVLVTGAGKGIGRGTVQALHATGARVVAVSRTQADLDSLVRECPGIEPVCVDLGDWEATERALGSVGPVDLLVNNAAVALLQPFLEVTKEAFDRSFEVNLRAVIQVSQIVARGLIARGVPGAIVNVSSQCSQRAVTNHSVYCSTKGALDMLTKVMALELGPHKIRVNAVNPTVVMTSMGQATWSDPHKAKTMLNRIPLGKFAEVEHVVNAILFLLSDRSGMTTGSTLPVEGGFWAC
UniProt O60832: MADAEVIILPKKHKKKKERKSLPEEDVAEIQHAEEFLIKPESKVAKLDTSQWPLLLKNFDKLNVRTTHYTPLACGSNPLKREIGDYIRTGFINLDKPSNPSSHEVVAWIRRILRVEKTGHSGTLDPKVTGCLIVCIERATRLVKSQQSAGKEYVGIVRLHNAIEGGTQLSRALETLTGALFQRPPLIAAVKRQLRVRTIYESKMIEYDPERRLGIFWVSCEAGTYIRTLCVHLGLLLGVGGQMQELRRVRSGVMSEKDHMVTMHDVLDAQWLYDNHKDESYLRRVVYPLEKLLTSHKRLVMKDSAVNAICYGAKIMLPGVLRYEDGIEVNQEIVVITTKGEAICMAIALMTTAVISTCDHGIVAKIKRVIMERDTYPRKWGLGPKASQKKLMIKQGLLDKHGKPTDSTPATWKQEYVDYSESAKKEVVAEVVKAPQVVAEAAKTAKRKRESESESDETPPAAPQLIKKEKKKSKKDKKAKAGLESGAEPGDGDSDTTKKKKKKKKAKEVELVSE
UniProt P36957: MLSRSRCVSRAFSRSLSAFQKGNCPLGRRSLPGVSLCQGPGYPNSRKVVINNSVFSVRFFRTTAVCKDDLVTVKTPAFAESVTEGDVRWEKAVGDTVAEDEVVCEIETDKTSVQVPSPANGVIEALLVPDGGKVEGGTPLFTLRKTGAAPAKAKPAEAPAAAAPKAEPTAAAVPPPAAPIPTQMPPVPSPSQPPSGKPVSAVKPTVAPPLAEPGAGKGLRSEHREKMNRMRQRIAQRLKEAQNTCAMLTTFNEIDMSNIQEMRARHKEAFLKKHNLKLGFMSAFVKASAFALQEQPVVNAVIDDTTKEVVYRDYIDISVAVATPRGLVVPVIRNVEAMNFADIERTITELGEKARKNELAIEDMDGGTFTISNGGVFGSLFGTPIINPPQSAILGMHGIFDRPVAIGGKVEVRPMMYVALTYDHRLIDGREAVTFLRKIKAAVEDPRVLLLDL
UniProt Q92841: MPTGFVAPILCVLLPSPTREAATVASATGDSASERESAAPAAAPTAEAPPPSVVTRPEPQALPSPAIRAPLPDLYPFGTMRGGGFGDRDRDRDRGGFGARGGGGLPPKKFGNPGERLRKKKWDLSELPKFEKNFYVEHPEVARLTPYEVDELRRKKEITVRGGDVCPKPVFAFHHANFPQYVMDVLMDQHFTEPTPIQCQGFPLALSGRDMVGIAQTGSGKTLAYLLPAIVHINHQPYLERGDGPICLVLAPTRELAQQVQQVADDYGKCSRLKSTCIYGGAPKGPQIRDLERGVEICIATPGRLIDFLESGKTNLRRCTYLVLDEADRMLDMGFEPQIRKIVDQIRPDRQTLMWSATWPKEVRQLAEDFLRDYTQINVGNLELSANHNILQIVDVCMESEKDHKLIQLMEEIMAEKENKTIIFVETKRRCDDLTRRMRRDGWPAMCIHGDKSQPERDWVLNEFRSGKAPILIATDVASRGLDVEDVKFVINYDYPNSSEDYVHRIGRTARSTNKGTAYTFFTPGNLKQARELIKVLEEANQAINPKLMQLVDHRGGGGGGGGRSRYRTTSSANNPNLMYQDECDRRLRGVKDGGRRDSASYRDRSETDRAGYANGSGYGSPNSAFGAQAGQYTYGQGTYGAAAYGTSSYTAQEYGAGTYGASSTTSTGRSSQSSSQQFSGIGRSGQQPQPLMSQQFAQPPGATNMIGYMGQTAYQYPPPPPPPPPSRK
UniProt Q08495: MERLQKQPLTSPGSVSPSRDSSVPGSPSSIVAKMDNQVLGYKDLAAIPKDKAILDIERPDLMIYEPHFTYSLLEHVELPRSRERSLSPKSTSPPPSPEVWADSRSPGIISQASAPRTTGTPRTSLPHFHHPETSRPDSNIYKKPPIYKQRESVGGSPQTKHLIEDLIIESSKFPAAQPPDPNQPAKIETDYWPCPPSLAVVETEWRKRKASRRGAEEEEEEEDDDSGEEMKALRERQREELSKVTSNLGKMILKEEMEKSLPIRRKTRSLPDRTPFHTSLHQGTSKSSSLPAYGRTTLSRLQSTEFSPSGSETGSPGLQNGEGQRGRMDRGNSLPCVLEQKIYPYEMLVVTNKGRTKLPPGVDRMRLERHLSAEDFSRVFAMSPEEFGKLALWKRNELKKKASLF
UniProt O00273: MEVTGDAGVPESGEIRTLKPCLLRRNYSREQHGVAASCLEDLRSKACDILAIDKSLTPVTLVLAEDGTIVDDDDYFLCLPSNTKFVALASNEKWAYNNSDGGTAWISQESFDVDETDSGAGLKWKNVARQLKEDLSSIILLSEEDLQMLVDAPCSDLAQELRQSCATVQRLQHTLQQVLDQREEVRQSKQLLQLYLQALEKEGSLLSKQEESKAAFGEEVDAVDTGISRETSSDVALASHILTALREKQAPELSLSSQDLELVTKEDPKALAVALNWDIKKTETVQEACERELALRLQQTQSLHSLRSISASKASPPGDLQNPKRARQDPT
UniProt Q7L2E3: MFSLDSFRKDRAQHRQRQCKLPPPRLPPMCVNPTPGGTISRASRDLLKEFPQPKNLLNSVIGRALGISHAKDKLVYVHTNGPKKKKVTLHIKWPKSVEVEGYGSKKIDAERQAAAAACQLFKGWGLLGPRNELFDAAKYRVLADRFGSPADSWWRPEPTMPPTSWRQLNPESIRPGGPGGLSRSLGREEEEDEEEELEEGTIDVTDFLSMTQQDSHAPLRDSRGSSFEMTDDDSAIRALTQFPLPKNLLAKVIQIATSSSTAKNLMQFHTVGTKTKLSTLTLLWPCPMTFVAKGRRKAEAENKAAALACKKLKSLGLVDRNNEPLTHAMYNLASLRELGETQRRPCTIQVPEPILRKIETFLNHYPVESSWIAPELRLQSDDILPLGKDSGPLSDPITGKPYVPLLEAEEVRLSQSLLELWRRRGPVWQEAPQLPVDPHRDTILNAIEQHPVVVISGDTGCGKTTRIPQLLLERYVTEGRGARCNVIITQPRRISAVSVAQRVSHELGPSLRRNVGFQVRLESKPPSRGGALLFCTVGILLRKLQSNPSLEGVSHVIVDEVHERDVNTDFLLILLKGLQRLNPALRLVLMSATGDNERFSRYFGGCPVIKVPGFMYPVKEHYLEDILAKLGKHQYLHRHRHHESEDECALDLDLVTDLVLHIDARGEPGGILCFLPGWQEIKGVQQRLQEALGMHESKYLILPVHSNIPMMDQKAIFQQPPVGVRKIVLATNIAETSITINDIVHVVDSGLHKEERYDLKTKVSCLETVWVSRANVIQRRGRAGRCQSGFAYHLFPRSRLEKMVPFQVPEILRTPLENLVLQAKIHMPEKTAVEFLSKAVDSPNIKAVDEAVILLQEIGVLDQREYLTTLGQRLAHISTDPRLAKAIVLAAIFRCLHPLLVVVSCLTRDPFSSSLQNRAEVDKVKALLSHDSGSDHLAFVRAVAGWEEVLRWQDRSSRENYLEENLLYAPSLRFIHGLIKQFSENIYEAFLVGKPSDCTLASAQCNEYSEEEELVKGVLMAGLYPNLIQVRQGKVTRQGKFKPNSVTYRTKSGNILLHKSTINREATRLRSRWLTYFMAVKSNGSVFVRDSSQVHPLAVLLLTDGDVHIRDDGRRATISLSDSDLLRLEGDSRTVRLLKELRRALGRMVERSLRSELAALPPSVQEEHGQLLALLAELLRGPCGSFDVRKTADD
UniProt Q8IWF6: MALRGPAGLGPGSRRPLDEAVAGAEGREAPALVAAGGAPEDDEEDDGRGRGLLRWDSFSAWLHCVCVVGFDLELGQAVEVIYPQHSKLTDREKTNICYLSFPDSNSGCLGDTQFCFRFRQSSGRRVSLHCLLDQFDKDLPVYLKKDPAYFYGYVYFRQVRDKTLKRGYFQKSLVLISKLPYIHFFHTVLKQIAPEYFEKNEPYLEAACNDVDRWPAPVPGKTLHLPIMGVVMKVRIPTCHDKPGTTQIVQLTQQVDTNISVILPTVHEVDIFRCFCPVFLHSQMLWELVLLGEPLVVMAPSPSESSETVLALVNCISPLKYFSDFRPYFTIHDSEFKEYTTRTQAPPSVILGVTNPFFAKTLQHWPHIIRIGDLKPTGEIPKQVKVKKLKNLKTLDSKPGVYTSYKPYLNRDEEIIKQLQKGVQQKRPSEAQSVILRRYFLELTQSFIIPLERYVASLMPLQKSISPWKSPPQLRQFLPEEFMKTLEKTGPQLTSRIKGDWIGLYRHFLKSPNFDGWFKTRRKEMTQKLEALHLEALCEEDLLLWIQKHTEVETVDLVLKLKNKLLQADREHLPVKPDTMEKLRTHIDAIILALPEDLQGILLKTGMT
UniProt Q02127: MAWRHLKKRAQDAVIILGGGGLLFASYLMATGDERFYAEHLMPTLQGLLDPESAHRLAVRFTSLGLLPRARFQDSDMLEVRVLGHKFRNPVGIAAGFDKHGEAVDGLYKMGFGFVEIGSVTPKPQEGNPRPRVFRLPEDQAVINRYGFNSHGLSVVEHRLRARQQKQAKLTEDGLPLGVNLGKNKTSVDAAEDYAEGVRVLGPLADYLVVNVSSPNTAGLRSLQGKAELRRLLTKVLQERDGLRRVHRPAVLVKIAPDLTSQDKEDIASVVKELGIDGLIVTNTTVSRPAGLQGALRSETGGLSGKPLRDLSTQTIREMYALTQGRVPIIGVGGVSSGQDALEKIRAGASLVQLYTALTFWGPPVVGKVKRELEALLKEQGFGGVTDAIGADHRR
UniProt Q16854: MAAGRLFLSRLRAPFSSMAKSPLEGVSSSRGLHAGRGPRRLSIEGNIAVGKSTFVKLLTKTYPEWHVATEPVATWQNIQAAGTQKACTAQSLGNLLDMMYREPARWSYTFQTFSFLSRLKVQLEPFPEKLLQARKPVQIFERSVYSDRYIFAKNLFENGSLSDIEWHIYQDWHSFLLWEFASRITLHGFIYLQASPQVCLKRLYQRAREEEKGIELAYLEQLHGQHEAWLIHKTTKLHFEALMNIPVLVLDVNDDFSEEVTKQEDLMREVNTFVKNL

crizotinib = compound: C[C@@H](Oc1cc(-c2cnn(C3CCNCC3)c2)cnc1N)c1c(Cl)ccc(F)c1Cl [crizotinib]
Summary of the method: as §1

[2] = compound: C[C@@H]1COCCN1C2=NC(=NC(=C2)C3(CC3)S(=O)(=O)C)C4=C5C=CNC5=CC=C4
Summary of the method: as §1

[3] = compound: C[C@H](C1=CC=C(C=C1)C(=O)NC2=C3C=CNC3=NC=C2)N
Summary of the method: as §1

duvelisib = compound: C[C@H](Nc1ncnc2nc[nH]c12)c1cc2cccc(Cl)c2c(=O)n1-c1ccccc1 [duvelisib]
Summary of the method: as §1

gandotinib = compound: Cc1cc(Nc2cc(CN3CCOCC3)c3nc(C)c(Cc4ccc(Cl)cc4F)n3n2)n[nH]1 [gandotinib]
Summary of the method: as §1

tozasertib = compound: Cc1cc(Nc2cc(N3CCN(C)CC3)nc(Sc3ccc(NC(=O)C4CC4)cc3)n2)n[nH]1 [tozasertib]
Summary of the method: as §1

[4] = compound: Cc1cc(SCc2sc(-c3ccc(C(F)(F)F)cc3)nc2C)ccc1OCC(=O)O
Summary of the method: as §1

doramapimod = compound: Cc1ccc(-n2nc(C(C)(C)C)cc2NC(=O)Nc2ccc(OCCN3CCOCC3)c3ccccc23)cc1 [doramapimod]
Summary of the method: as §1

ispinesib = compound: Cc1ccc(C(=O)N(CCCN)[C@@H](c2nc3cc(Cl)ccc3c(=O)n2Cc2ccccc2)C(C)C)cc1 [ispinesib]
Summary of the method: as §1

bafetinib = compound: Cc1ccc(NC(=O)c2ccc(CN3CC[C@H](N(C)C)C3)c(C(F)(F)F)c2)cc1Nc1nccc(-c2cncnc2)n1 [bafetinib]
Summary of the method: as §1

[5] = compound: Cc1cccc(CC(=O)N2CCc3c2ccc(-c2cn(C)c4ncnc(N)c24)c3F)n1
Summary of the method: as §1

nilotinib = compound: Cc1cn(-c2cc(NC(=O)c3ccc(C)c(Nc4nccc(-c5cccnc5)n4)c3)cc(C(F)(F)F)c2)cn1 [nilotinib]
Summary of the method: as §1

[6] = compound: Cc1nc(Nc2n[nH]c3c2CN(C(=O)N[C@H](CN(C)C)c2ccccc2)C3(C)C)c2sccc2n1
Summary of the method: as §1

dasatinib = compound: Cc1nc(Nc2ncc(C(=O)Nc3c(C)cccc3Cl)s2)cc(N2CCN(CCO)CC2)n1 [dasatinib]
Summary of the method: as §1

[7] = compound: Cc1ncc(-c2ccnc(Nc3ccc(S(C)(=O)=O)cc3)n2)n1C(C)C
Summary of the method: as §1

[8] = compound: Cn1cc(-c2ccc3c(c2)CCN3C(=O)Cc2cccc(C(F)(F)F)c2)c2c(N)ncnc21
Summary of the method: as §1

[9] = compound: Cn1cc(-c2ccc3nnc(C(F)(F)c4ccc5ncccc5c4)n3n2)cn1
Summary of the method: as §1

tipifarnib = compound: Cn1cncc1[C@@](N)(c1ccc(Cl)cc1)c1ccc2c(c1)c(-c1cccc(Cl)c1)cc(=O)n2C [tipifarnib]
Summary of the method: as §1

mubritinib = compound: FC(F)(F)c1ccc(/C=C/c2nc(COc3ccc(CCCCn4ccnn4)cc3)co2)cc1 [mubritinib]
Summary of the method: as §1

Measured: log2 fold change

DERL2 (UniProt Q9GZP9)
inactive: [1] 0.005 | crizotinib 0.019 | [2] -0.034 | [3] -0.059 | duvelisib 0.292 | gandotinib -0.053 | tozasertib 0.044 | [4] 0.078 | doramapimod 0.029 | ispinesib 0.065 | bafetinib -0.102 | [5] -0.196 | nilotinib -0.1 | [6] -0.198 | dasatinib 0.151 | [7] 0.056 | [8] 0.094 | [9] 0.04 | tipifarnib 0.279 | mubritinib -0.016

DLG1 isoform 2 (UniProt Q12959)
inactive: [1] 0.041 | crizotinib -0.044 | [2] 0.026 | [3] -0.062 | duvelisib -0.044 | gandotinib -0.054 | tozasertib -0.06 | [4] 0.02 | doramapimod 0.004 | ispinesib 0.111 | bafetinib -0.019 | [5] 0.01 | nilotinib 0.015 | [6] -0.075 | dasatinib 0.021 | [7] -0.061 | [8] 0.038 | [9] 0.109 | tipifarnib 0.016 | mubritinib 0.05

DDX21 (UniProt Q9NR30)
inactive: [1] -0.025 | crizotinib -0.114 | [2] -0.043 | [3] 0.381 | duvelisib -0.087 | gandotinib 0.001 | tozasertib -0.05 | [4] -0.01 | doramapimod 0.152 | ispinesib -0.181 | bafetinib 0.042 | [5] -0.03 | nilotinib 0.04 | [6] -0.013 | dasatinib 0.139 | [7] 0.096 | [8] -0.233 | [9] -0.074 | tipifarnib 0.174 | mubritinib -0.071

DMAC2 isoform 4 (UniProt Q9NW81)
inactive: [1] 0.08 | crizotinib 0.01 | [2] -0.046 | [3] 0 | duvelisib 0.024 | gandotinib -0.128 | tozasertib 0.086 | [4] 0.035 | doramapimod -0.043 | ispinesib -0.144 | bafetinib -0.027 | [5] 0.02 | nilotinib -0.029 | [6] 0.056 | dasatinib -0.079 | [7] -0.006 | [8] 0.058 | [9] 0.112 | tipifarnib -0.111 | mubritinib 0.002

Reprinted at random: two records from the list
DDX21 (UniProt Q9NR30)
inactive: [1] -0.025 | crizotinib -0.114 | [2] -0.043 | [3] 0.381 | duvelisib -0.087 | gandotinib 0.001 | tozasertib -0.05 | [4] -0.01 | doramapimod 0.152 | ispinesib -0.181 | bafetinib 0.042 | [5] -0.03 | nilotinib 0.04 | [6] -0.013 | dasatinib 0.139 | [7] 0.096 | [8] -0.233 | [9] -0.074 | tipifarnib 0.174 | mubritinib -0.071

DMAC2 isoform 4 (UniProt Q9NW81)
inactive: [1] 0.08 | crizotinib 0.01 | [2] -0.046 | [3] 0 | duvelisib 0.024 | gandotinib -0.128 | tozasertib 0.086 | [4] 0.035 | doramapimod -0.043 | ispinesib -0.144 | bafetinib -0.027 | [5] 0.02 | nilotinib -0.029 | [6] 0.056 | dasatinib -0.079 | [7] -0.006 | [8] 0.058 | [9] 0.112 | tipifarnib -0.111 | mubritinib 0.002

(list continues)

DCXR (UniProt Q7Z4W1)
inactive: [1] 0.016 | crizotinib 0.073 | [2] 0.033 | [3] -0.041 | duvelisib 0.05 | gandotinib -0.044 | tozasertib -0.002 | [4] -0.036 | doramapimod -0.017 | ispinesib 0.02 | bafetinib -0.026 | [5] -0.01 | nilotinib -0.031 | [6] 0.024 | dasatinib 0.032 | [7] -0.025 | [8] 0.011 | [9] 0.019 | tipifarnib -0.007 | mubritinib 0.026

DKC1 (UniProt O60832)
inactive: [1] -0.066 | crizotinib 0.007 | [2] -0.077 | [3] 0.158 | duvelisib -0.035 | gandotinib 0.102 | tozasertib -0.048 | [4] -0.012 | doramapimod 0.08 | ispinesib -0.008 | bafetinib 0.065 | [5] -0.048 | nilotinib -0.024 | [6] 0.108 | dasatinib 0.143 | [7] 0.032 | [8] -0.117 | [9] -0.117 | tipifarnib 0.072 | mubritinib -0.043

DLST (UniProt P36957)
inactive: [1] 0.017 | crizotinib 0.011 | [2] -0.117 | [3] 0.054 | duvelisib -0.048 | gandotinib 0.061 | tozasertib -0.036 | [4] -0.021 | doramapimod 0.018 | ispinesib -0.032 | bafetinib 0.048 | [5] -0.042 | nilotinib 0.019 | [6] 0.067 | dasatinib 0.102 | [7] -0.035 | [8] -0.049 | [9] 0.016 | tipifarnib 0.106 | mubritinib -0.06

DDX17 (UniProt Q92841)
inactive: [1] 0.035 | crizotinib -0.065 | [2] 0.056 | [3] 0.046 | duvelisib 0.013 | gandotinib 0.005 | tozasertib -0.034 | [4] 0.1 | doramapimod -0.037 | ispinesib 0.001 | bafetinib 0.11 | [5] 0.034 | nilotinib 0.067 | [6] 0.01 | dasatinib -0.057 | [7] -0.002 | [8] 0.001 | [9] -0.002 | tipifarnib -0.04 | mubritinib 0.171

DMTN (UniProt Q08495)
inactive: [1] 0.017 | crizotinib -0.015 | [2] 0.044 | [3] -0.042 | duvelisib 0.052 | gandotinib 0.037 | tozasertib -0.038 | [4] -0.057 | doramapimod 0.002 | ispinesib 0.006 | bafetinib -0.074 | [5] 0.012 | nilotinib -0.004 | [6] -0.055 | dasatinib 0.004 | [7] -0.041 | [8] 0.022 | [9] -0.051 | tipifarnib -0.014 | mubritinib 0.013

DHX9 (UniProt Q08211)
inactive: [1] -0.079 | crizotinib -0.054 | [2] -0.289 | [3] 0.21 | duvelisib -0.088 | gandotinib 0.061 | tozasertib 0.062 | [4] 0.037 | doramapimod 0.074 | ispinesib 0.019 | bafetinib 0.102 | [5] 0.007 | nilotinib -0.072 | [6] 0.098 | dasatinib 0.145 | [7] 0.28 | [8] -0.295 | [9] -0.12 | tipifarnib 0.058 | mubritinib -0.13

DDA1 (UniProt Q9BW61)
inactive: [1] 0.016 | crizotinib 0.121 | [2] 0.081 | [3] 0.022 | duvelisib 0.026 | gandotinib -0.055 | tozasertib -0.018 | [4] 0.007 | doramapimod 0.042 | ispinesib -0.014 | bafetinib -0.065 | [5] 0.003 | nilotinib 0.043 | [6] -0.033 | dasatinib -0.028 | [7] -0.06 | [8] -0.027 | [9] 0.029 | tipifarnib 0.045 | mubritinib 0.003

DFFA (UniProt O00273)
inactive: [1] 0.012 | crizotinib 0.022 | [2] 0.09 | [3] -0.069 | duvelisib 0.003 | gandotinib -0.024 | tozasertib -0.015 | [4] -0.01 | doramapimod 0.003 | ispinesib 0.052 | bafetinib -0.021 | [5] 0.006 | nilotinib -0.008 | [6] 0.037 | dasatinib 0.033 | [7] 0.003 | [8] 0.026 | [9] -0.012 | tipifarnib -0.01 | mubritinib -0.024

DHX30 isoform 2 (UniProt Q7L2E3)
inactive: [1] -0.07 | crizotinib -0.07 | [2] -0.264 | [3] 0.316 | duvelisib -0.138 | gandotinib 0.131 | tozasertib -0.02 | [4] 0.063 | doramapimod 0.055 | ispinesib -0.258 | bafetinib 0.066 | [5] 0.018 | nilotinib -0.026 | [6] -0.13 | dasatinib 0.02 | [7] 0.105 | [8] -0.182 | [9] -0.097 | tipifarnib 0.032 | mubritinib -0.091

DENND6A (UniProt Q8IWF6)
inactive: [1] -0.057 | crizotinib -0.044 | [2] 0.109 | [3] 0.009 | duvelisib -0.109 | gandotinib 0.076 | tozasertib 0.073 | [4] 0.033 | doramapimod 0.018 | ispinesib -0.178 | bafetinib -0.068 | [5] -0.106 | nilotinib 0.041 | [6] -0.026 | dasatinib -0.062 | [7] 0.069 | [8] 0.014 | [9] -0.04 | tipifarnib 0.073 | mubritinib 0.023

DHODH (UniProt Q02127)
inactive: [1] 0.021 | crizotinib 0.023 | [2] 0.027 | [3] -0.018 | duvelisib 0.007 | gandotinib 0.063 | tozasertib 0.037 | [4] -0.074 | doramapimod -0.017 | ispinesib 0.014 | bafetinib -0.042 | [5] -0.049 | nilotinib 0.003 | [6] -0.002 | dasatinib 0.031 | [7] -0.036 | [8] 0.026 | [9] -0.022 | tipifarnib 0.046 | mubritinib 0.035

DGUOK (UniProt Q16854)
inactive: [1] 0.019 | crizotinib 0.039 | [2] -0.084 | [3] -0.031 | duvelisib 0.028 | gandotinib -0.054 | tozasertib -0.018 | [4] 0.032 | doramapimod -0.049 | ispinesib 0.02 | bafetinib -0.099 | [5] -0.104 | nilotinib 0.011 | [6] 0.004 | dasatinib 0.045 | [7] -0.032 | [8] -0.007 | [9] 0.038 | tipifarnib 0.051 | mubritinib 0.018

From the supplement of paper PMC10849652
